No constants are given. Whether binding was seen depends on the method and setting. Some binding calls cover weakened binding; strength is not graded here.

In this experiment the target is eIF2Bα2 dimer (human) (UniProt Q14232). In words: cryo-EM structure.

B1: eIF2Bα2 dimer (complex, UniProt Q14232 2-305)
chain: DDKELIEYFKSQMKEDPDMASAVAAIRTLLEFLKRDKGETIQGLRANLTSAIETLCGVDSSVAVSSGGELFLRFISLASLEYSDYSKCKKIMIERGELFLRRISLSRNKIADLCHTFIKDGATILTHAYSRVVLRVLEAAVAAKKRFSVYVTESQPDLSGKKMAKALCHLNVPVTVVLDAAVGYIMEKADLVIVGAEGVVENGGIINKIGTNQMAVCAKAQNKPFYVVAESFKFVRLFPLNQQDVPDKFKYKADTLKVAQTGQDLKEEHPWVDYTAPSLITLLFTDLGVLTPSAVSDELIKLYL
As for B1, the binding entry is “binds”.

Values taken from publication doi:10.1101/2022.12.22.521453.
